Measurements as given in PubChem BioAssay AID651640 (Broad Institute, 2012).
The campaign covered roughly 350,000 compounds. About 6,000 (1.7%) were called active. The shares of active, inactive and inconclusive entries below differ from those in the screen. Rule as the data show it: active = CPE inhibition above about 20% (passing the limit was not always enough); inconclusive = no clear call, values can overlap the other calls; tested in BHK-21 cells.

Assay: protection of cells from dengue 2 killing – plate reader, single concentration, primary screen (AID 651640);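 also: 0% = median of neutral control wells and 100% = median of positive control wells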
Conditions: DENV2-infected cells, cytopathic effect rescue, at 9.99 µM, hits give high values

Structure (SMILES) | CPE inhibition
CC(=NNC(=O)c1ccncc1)c1cccc(Br)c1 | inconclusive: 21.5%
CCCC(=O)Nc1ccc2c(c1)OC[C@H](C)N(CCC(F)(F)F)C[C@@H](C)[C@@H](OC)CN(C)C2=O | inactive: -1.21%
C/C=C/c1ccc2c(c1)[C@H]1[C@H](CCN1C(=O)Cc1cccnc1)[C@H](CO)N2C | inconclusive: 23.6%
N#C[C@H]1[C@@H](c2ccccc2C2=CCCC2)[C@H](CO)N1S(=O)(=O)c1cccc(F)c1 | inactive: 2.02%
CC(=O)Nc1cnc(-c2cccc(C(=O)N3CCOCC3)c2)cn1 | inconclusive: 20.1%
COc1ccc(C(C)=O)cc1CC1(C)C(=O)Nc2ccc(-c3ccccc3OC)cc21 (configuration not stated) | inconclusive: 54%
Cc1cc(C(=O)N2CCN(c3ccc([N+](=O)[O-])cc3)CC2)c(C)o1 | inconclusive: 31.8%
CN1c2ccc(-c3ccccc3F)cc2[C@@H]2[C@@H](CCN2S(=O)(=O)c2ccc(F)cc2)[C@@H]1CO | active: 52.6%
CN1CCN(C(=O)c2cc3c(c(-c4cccc(-c5cccc(C(=O)N(C)C)c5)c4)n2)[C@@H](CCO)N([S@](=O)C(C)(C)C)C3)CC1 | inactive: 1.86%
CCC(=O)N[C@H]1CC[C@@H](CC(=O)OC)O[C@@H]1CO | inactive: 3.58%
COc1ccc(C(C)(NC(C)=O)c2nc(-c3cccc(F)c3)cs2)cc1 (configuration not stated) | active: 28.6%
CCC(=O)N1C[C@@H](C)[C@@H](OC)CN(C)C(=O)c2cc(NS(C)(=O)=O)ccc2OC[C@@H]1C | inactive: 1.81%
Cc1ccccc1-c1cnc2c(c1)C(=O)N([C@@H](C)CO)C[C@H](C)[C@H](CN(C)Cc1ccncc1)O2 | inconclusive: 21.2%
CC1(NC(=O)Cc2c(Cl)cccc2Cl)CCS(=O)(=O)C1 (configuration not stated) | inconclusive: 26.1%
CCOc1ccc(CCNS(=O)(=O)c2c(C)nc3scc(C)n3c2=O)cc1OCC | inactive: -2.39%
O=C(Nc1ccc(C(O)c2ccccc2)cc1)[C@@H]1O[C@H](CO)[C@H](O)[C@H](O)[C@H]1O (some centres not stated) | inactive: 7.48%
CC(c1ccccc1)N1CCN(C(=O)CCl)CC1 (configuration not stated) | inconclusive: 46%
Cc1ccc(COC(=O)CCCN=C2NS(=O)(=O)c3ccccc32)cc1 | inconclusive: 30.7%
O=C(Cc1ccccc1)N1CC(=O)N2[C@@H](CO)[C@H](c3ccc(C#Cc4ccccc4)cc3)[C@@H]2C1 | active: 23.7%
O=C(O)Cn1c(CCS(=O)(=O)c2ccc(Br)cc2)nc2ccccc21 | inconclusive: 21.1%
COCCNC(=O)C[C@@H]1CC[C@@H]2[C@H](COc3ccc(NC(=O)Nc4cccc(F)c4)cc3C(=O)N2C)O1 | inconclusive: 71.7%
CS(=O)(=O)N1N=C(c2ccco2)CC1c1ccc(Br)cc1 (configuration not stated) | inactive: 16.7%
Cc1ccc(S(=O)(=O)Nc2ccc3c(c2)C(=O)N([C@H](C)CO)C[C@H](C)[C@@H](CN(C)CC2CCCCC2)OCCCC[C@@H](C)O3)cc1 | inconclusive: 44.8%
C[C@H]1CN([C@@H](C)CO)C(=O)Cc2cc(NS(C)(=O)=O)ccc2O[C@@H]1CN(C)Cc1ccc(C(=O)O)cc1 | inconclusive: 36.9%

Copied from the list:
In CPE inhibition, O=C(O)Cn1c(CCS(=O)(=O)c2ccc(Br)cc2)nc2ccccc21 reads inconclusive: 21.1%
In CPE inhibition, C[C@H]1CN([C@@H](C)CO)C(=O)Cc2cc(NS(C)(=O)=O)ccc2O[C@@H]1CN(C)Cc1ccc(C(=O)O)cc1 reads inconclusive: 36.9%
In CPE inhibition, CCCC(=O)Nc1ccc2c(c1)OC[C@H](C)N(CCC(F)(F)F)C[C@@H](C)[C@@H](OC)CN(C)C2=O reads inactive: -1.21%
In CPE inhibition, O=C(Cc1ccccc1)N1CC(=O)N2[C@@H](CO)[C@H](c3ccc(C#Cc4ccccc4)cc3)[C@@H]2C1 reads active: 23.7%

Carrying on.

Structure (SMILES) | CPE inhibition
COc1cccc(NCc2cc(=O)oc3cc(C)c(C(C)C)cc23)c1 | inconclusive: 31%
CC1CCN(c2nc(-c3cccnc3)nc3scc(-c4ccccc4)c23)CC1 | inactive: -4.31%
O=[N+]([O-])c1ccc(C2=CSC3=NCCN23)cc1 | inconclusive: 42.3%
Cc1ccc(S(=O)(=O)Nc2ccc3c(c2)C(=O)N([C@@H](C)CO)C[C@H](C)[C@@H](CN(C)S(=O)(=O)c2ccccc2)OCCCC[C@@H](C)O3)cc1 | inconclusive: 21.7%
COCC(=O)N1CCCCN2[C@@H](CO)[C@@H](c3ccc(-c4ccc(F)cc4)cc3)[C@@H]2C1 | active: 27.7%
CN1C(=O)c2cc(NC(=O)Nc3ccccc3F)ccc2OC[C@H]2O[C@@H](CC(=O)NCc3ccc(-c4ccccc4)cc3)CC[C@@H]21 | inconclusive: 60.4%
CC1(c2nnc(-c3cccc(Cl)c3)o2)CC(c2cccc(F)c2)=NO1 (configuration not stated) | inconclusive: 22.7%
O=C(c1ccccn1)N1CC(=O)N2[C@@H](CO)[C@@H](c3ccc(C#CC4CCCC4)cc3)[C@@H]2C1 | inactive: -4.54%
COc1ccc(Nc2n[nH]c(C)c2[N+](=O)[O-])cc1 | inactive: 2.28%
COc1cccc(OC)c1C(=O)NCCc1ccccc1 | inconclusive: 42.2%
COc1ccc(-c2nc(CN3CCN(c4cc(C)nc(C)c4)CC3)c(C)o2)c2ccccc12 | inactive: -2.67%
C[C@@H]1CCCCO[C@@H](CN(C)Cc2ccc(C(=O)O)cc2)[C@@H](C)CN([C@@H](C)CO)C(=O)c2cc(NS(=O)(=O)c3ccccc3)ccc2O1 | inconclusive: 57.7%
C[C@@H]1CCCCO[C@@H](CN(C)Cc2ccc(Cl)c(Cl)c2)[C@@H](C)CN([C@H](C)CO)C(=O)c2cc(NS(=O)(=O)c3ccc(Cl)cc3)ccc2O1 | active: 78.7%
C=CCOc1ccc(/C=C/C(=O)OCC(=O)N2CCCc3ccccc32)cc1 | inconclusive: 20.8%
C[C@H]1CCCCO[C@@H](CN(C)C(=O)Nc2ccc3c(c2)OCO3)[C@@H](C)CN([C@@H](C)CO)C(=O)c2cc(NS(=O)(=O)c3cccs3)ccc2O1 | inconclusive: 26.8%
CC(C)NC(=O)N(C)C[C@@H]1Oc2ncc(-c3cncnc3)cc2C(=O)N([C@@H](C)CO)C[C@@H]1C | inactive: -0.244%
Nc1nnc(CC(=O)N/N=C/c2ccc(-c3cccc(C(=O)O)c3)o2)s1 | inactive: 0.656%
CN(C)CCCNC(=O)C[C@@H]1CC[C@@H]2[C@H](COc3ccc(NC(=O)c4ccccc4F)cc3C(=O)N2C)O1 | inconclusive: 32%
CN(C(=O)C1Cc2c(-c3ccccc3Oc3ccccc3)ccnc2O1)c1ccccc1 (configuration not stated) | inactive: -4.28%
O=C(COC(=O)c1cnccn1)NCc1ccccc1Cl | inconclusive: 23.5%
CN1C(=O)c2cc(NC(=O)c3cccc(F)c3)ccc2OC[C@@H]2O[C@@H](CC(=O)N3CCc4ccccc4C3)CC[C@@H]21 | inconclusive: 23.8%
CC(C)C[C@@H]1NC(=O)[C@H]2C[C@@H](C(=O)NCCCCCN)[C@@H](c3cccc(OCCO)c3)N2C1=O | active: 31.8%
CC1CC(=O)Nc2ccccc2N1C(=O)CN1C(=O)C(=O)N(C)C1=O (configuration not stated) | inconclusive: 25.3%
COc1ccc(C(=O)Nc2ccccc2C(=O)Nc2ccccn2)cc1 | inactive: -6.92%

Structure (SMILES) | CPE inhibition
C[C@@H]1CN([C@H](C)CO)C(=O)c2cc(-c3ccccc3)cnc2O[C@H]1CN(C)C(=O)c1cccnc1 | inactive: -2.57%
C[C@@H]1CN([C@@H](C)CO)C(=O)Cc2cc(NC(=O)CCC(F)(F)F)ccc2O[C@H]1CN(C)Cc1ccc(-c2ccccc2)cc1 | inactive: 3.68%
CCc1cccc2c(C(=O)COC(=O)c3ccc([N+](=O)[O-])s3)c[nH]c12 | inactive: 14%
CCCC(=O)n1nc(-c2cccnc2)nc1NCc1cccs1 | inconclusive: 20.8%
O=C(C1CC=CCC1)N1CCCCCC1 (configuration not stated) | inconclusive: 42.5%
CCOc1cc(/C=N/NC(=O)c2ccncc2)cc(Cl)c1OS(C)(=O)=O | inactive: -6.85%
COCC(=O)Nc1ccc2c(c1)C(=O)N(C)[C@@H]1CC[C@@H](CC(=O)NCCCN(C)C)O[C@H]1CO2 | inconclusive: 20.9%
C[C@H](CO)N1C[C@H](C)[C@H](CN(C)Cc2ccc3c(c2)OCO3)Oc2c(NS(=O)(=O)c3ccc(Cl)cc3)cccc2C1=O | inconclusive: 20.6%
COc1ccc(S(=O)(=O)N(C)C[C@H]2Oc3ccc(NC(=O)Nc4c(C)noc4C)cc3CC(=O)N([C@H](C)CO)C[C@H]2C)cc1 | inactive: -2.13%
COC(=O)C1=C(C)OC(N)=C(C#N)C1c1cc2cc(C)ccc2nc1Cl (configuration not stated) | inconclusive: 21.7%
O=C(Cc1ccccn1)NCC[C@@H]1CC[C@H](NC(=O)Nc2ccc(C(F)(F)F)cc2)[C@@H](CO)O1 | inactive: -4.11%
COc1ccccc1S(=O)(=O)N[C@H]1C=C[C@@H](CC(=O)N2CCCCC2)O[C@H]1CO | inactive: 2.39%
CCCSc1cc(N)cc([N+](=O)[O-])c1 | inconclusive: 30.2%
Cc1ccc(S(=O)(=O)N(C)C[C@@H]2Oc3ccc(NC(=O)CCCN(C)C)cc3C(=O)N([C@H](C)CO)C[C@H]2C)cc1 | inconclusive: 34.4%
O=C(Nc1cccc(F)c1)/C(=C\c1cccnc1)NC(=O)c1ccco1 | inactive: -1.06%
CCN1CCN(C2=C(NS(=O)(=O)c3ccc(Br)cc3)C(=O)c3ccccc3C2=O)CC1 | inactive: -3.27%
C=CCOc1ccccc1CN1CCC(Oc2ccc(C(=O)N3CCCCC3)cc2)CC1 | inconclusive: 67.2%
COc1ccc(CCN2CC(C(=O)NCCc3ncccc3C)CCC2=O)cc1 (configuration not stated) | active: 33.9%
CCC(=O)N1CC2(C1)[C@@H](c1ccccc1)[C@@H](CO)N2C(=O)c1cccnc1 | active: 29.2%
O=C(NCc1ccccn1)[C@@H]1CCCN1C(=O)[C@@H]1CCCN1C(=O)c1cccc2ccccc12 | inconclusive: 92.8%
C[C@@H]1CCCCO[C@@H](CN(C)C(=O)C2CCCCC2)[C@@H](C)CN([C@@H](C)CO)C(=O)c2cc(NC(=O)Nc3ccc(F)cc3)ccc2O1 | active: 21%
COC(=O)Nc1ccc(Cn2cc(C(F)(F)F)ccc2=O)cc1 | inactive: 0.206%
COc1ccc(CN2CCC(=O)N(CCO)CC2)cc1OC | inconclusive: 67%
CNC(=O)C[C@@H]1CC[C@H]2[C@@H](COc3ccc(NC(=O)Nc4cccc(C)c4)cc3C(=O)N2C)O1 | inconclusive: 82.1%
